Test results reported in the supplement of paper PMC8728848.
This is one part of the list.

Experiments:
Test in all cases: glycan array binding signal (z-score within array); higher = stronger binding
Details in all cases: glycan notation: IUPAC condensed, linker removed
[1] = target: Gal(b1-4)GlcNAc(b1-2)[Gal(b1-4)GlcNAc(b1-6)]Man(a1-6)[Gal(b1-4)GlcNAc(b1-2)Man(a1-3)]Man(b1-4)GlcNAc(b1-4)[Fuc(a1-6)]GlcNAc
Outline: (§1)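 Negative Z-scores can be read as non-binding. The Z-score is calculated within each array and then averaged across arrays of one protein sequence at different concentrations or buffers and across linkers. Arrays, 3228 in all, were curated from the Consortium for Functional Glycomics database and kept only where the protein sequence was available.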

[2] = target: Gal(b1-4)GlcNAc(b1-2)[Gal(b1-4)GlcNAc(b1-6)]Man(a1-6)[GlcNAc(b1-4)][Gal(b1-4)GlcNAc(b1-2)Man(a1-3)]Man(b1-4)GlcNAc(b1-4)GlcNAc
Outline: as §1

[3] = target: Gal(b1-4)GlcNAc(b1-2)[Gal(b1-4)GlcNAc(b1-6)]Man(a1-6)[GlcNAc(b1-4)][Gal(b1-4)GlcNAc(b1-2)[Gal(b1-4)GlcNAc(b1-4)]Man(a1-3)]Man(b1-4)GlcNAc(b1-4)[Fuc(a1-6)]GlcNAc
Outline: as §1

[4] = target: Gal(b1-4)GlcNAc(b1-3)Gal(b1-3)GalNAc
Outline: as §1

[5] = target: Gal(b1-4)GlcNAc(b1-3)Gal(b1-3)GlcNAc
Outline: as §1

[6] = target: Gal(b1-4)GlcNAc(b1-3)Gal(b1-4)Glc
Outline: as §1

[7] = target: Gal(b1-4)GlcNAc(b1-3)Gal(b1-4)GlcNAc
Outline: as §1

[8] = target: Gal(b1-4)GlcNAc(b1-3)Gal(b1-4)GlcNAc(b1-2)Man(a1-3)[Gal(b1-4)GlcNAc(b1-3)Gal(b1-4)GlcNAc(b1-2)Man(a1-6)]Man(b1-4)GlcNAc(b1-4)GlcNAc
Outline: as §1

[9] = target: Gal(b1-4)GlcNAc(b1-3)Gal(b1-4)GlcNAc(b1-2)Man(a1-3)[Gal(b1-4)GlcNAc(b1-3)Gal(b1-4)GlcNAc(b1-2)Man(a1-6)]Man(b1-4)GlcNAc(b1-4)[Fuc(a1-6)]GlcNAc
Outline: as §1

[10] = target: Gal(b1-4)GlcNAc(b1-3)Gal(b1-4)GlcNAc(b1-2)[Gal(b1-4)GlcNAc(b1-3)Gal(b1-4)GlcNAc(b1-6)]Man(a1-6)[Gal(b1-4)GlcNAc(b1-3)Gal(b1-4)GlcNAc(b1-2)Man(a1-3)]Man(b1-4)GlcNAc(b1-4)GlcNAc
Outline: as §1

[11] = target: Gal(b1-4)GlcNAc(b1-3)Gal(b1-4)GlcNAc(b1-2)[Gal(b1-4)GlcNAc(b1-3)Gal(b1-4)GlcNAc(b1-6)]Man(a1-6)[Gal(b1-4)GlcNAc(b1-3)Gal(b1-4)GlcNAc(b1-2)Man(a1-3)]Man(b1-4)GlcNAc(b1-4)[Fuc(a1-6)]GlcNAc
Outline: as §1

[12] = target: Gal(b1-4)GlcNAc(b1-3)Gal(b1-4)GlcNAc(b1-3)Gal(b1-4)GlcNAc
Outline: as §1

[13] = target: Gal(b1-4)GlcNAc(b1-3)Gal(b1-4)GlcNAc(b1-3)Gal(b1-4)GlcNAc(b1-2)Man(a1-3)[Gal(b1-4)GlcNAc(b1-3)Gal(b1-4)GlcNAc(b1-3)Gal(b1-4)GlcNAc(b1-2)Man(a1-6)]Man(b1-4)GlcNAc(b1-4)GlcNAc
Outline: as §1

[14] = target: Gal(b1-4)GlcNAc(b1-3)Gal(b1-4)GlcNAc(b1-3)Gal(b1-4)GlcNAc(b1-2)Man(a1-3)[Gal(b1-4)GlcNAc(b1-3)Gal(b1-4)GlcNAc(b1-3)Gal(b1-4)GlcNAc(b1-2)Man(a1-6)]Man(b1-4)GlcNAc(b1-4)[Fuc(a1-6)]GlcNAc
Outline: as §1

[15] = target: Gal(b1-4)GlcNAc(b1-3)Gal(b1-4)GlcNAc(b1-3)Gal(b1-4)GlcNAc(b1-2)[Gal(b1-4)GlcNAc(b1-3)Gal(b1-4)GlcNAc(b1-3)Gal(b1-4)GlcNAc(b1-6)]Man(a1-6)[Gal(b1-4)GlcNAc(b1-3)Gal(b1-4)GlcNAc(b1-3)Gal(b1-4)GlcNAc(b1-2)Man(a1-3)]Man(b1-4)GlcNAc(b1-4)[Fuc(a1-6)]GlcNAc
Outline: as §1

[16] = target: Gal(b1-4)GlcNAc(b1-3)Gal(b1-4)GlcNAc(b1-3)Gal(b1-4)GlcNAc(b1-3)Gal(b1-4)GlcNAc(b1-2)Man(a1-3)[Gal(b1-4)GlcNAc(b1-3)Gal(b1-4)GlcNAc(b1-3)Gal(b1-4)GlcNAc(b1-3)Gal(b1-4)GlcNAc(b1-2)Man(a1-6)]Man(b1-4)GlcNAc(b1-4)GlcNAc
Outline: as §1

[17] = target: Gal(b1-4)GlcNAc(b1-3)Gal(b1-4)GlcNAc(b1-3)Gal(b1-4)GlcNAc(b1-3)Gal(b1-4)GlcNAc(b1-2)Man(a1-3)[Gal(b1-4)GlcNAc(b1-3)Gal(b1-4)GlcNAc(b1-3)Gal(b1-4)GlcNAc(b1-3)Gal(b1-4)GlcNAc(b1-2)Man(a1-6)]Man(b1-4)GlcNAc(b1-4)[Fuc(a1-6)]GlcNAc
Outline: as §1

[18] = target: Gal(b1-4)GlcNAc(b1-3)Gal(b1-4)GlcNAc(b1-3)Gal(b1-4)GlcNAc(b1-3)Gal(b1-4)GlcNAc(b1-2)[Gal(b1-4)GlcNAc(b1-3)Gal(b1-4)GlcNAc(b1-3)Gal(b1-4)GlcNAc(b1-3)Gal(b1-4)GlcNAc(b1-6)]Man(a1-6)[Gal(b1-4)GlcNAc(b1-3)Gal(b1-4)GlcNAc(b1-3)Gal(b1-4)GlcNAc(b1-3)Gal(b1-4)GlcNAc(b1-2)Man(a1-3)]Man(b1-4)GlcNAc(b1-4)[Fuc(a1-6)]GlcNAc
Outline: as §1

[19] = target: Gal(b1-4)GlcNAc(b1-3)Gal(b1-4)GlcNAc(b1-3)Gal(b1-4)GlcNAc(b1-3)Gal(b1-4)GlcNAc(b1-3)Gal(b1-4)GlcNAc(b1-2)Man(a1-3)[Gal(b1-4)GlcNAc(b1-3)Gal(b1-4)GlcNAc(b1-3)Gal(b1-4)GlcNAc(b1-3)Gal(b1-4)GlcNAc(b1-3)Gal(b1-4)GlcNAc(b1-2)Man(a1-6)]Man(b1-4)GlcNAc(b1-4)GlcNAc
Outline: as §1

[20] = target: Gal(b1-4)GlcNAc(b1-3)Gal(b1-4)GlcNAc(b1-3)Gal(b1-4)GlcNAc(b1-3)Gal(b1-4)GlcNAc(b1-3)Gal(b1-4)GlcNAc(b1-2)Man(a1-3)[Gal(b1-4)GlcNAc(b1-3)Gal(b1-4)GlcNAc(b1-3)Gal(b1-4)GlcNAc(b1-3)Gal(b1-4)GlcNAc(b1-3)Gal(b1-4)GlcNAc(b1-2)Man(a1-6)]Man(b1-4)GlcNAc(b1-4)[Fuc(a1-6)]GlcNAc
Outline: as §1

[21] = target: Gal(b1-4)GlcNAc(b1-3)Gal(b1-4)GlcNAc(b1-3)Gal(b1-4)GlcNAc(b1-3)Gal(b1-4)GlcNAc(b1-3)Gal(b1-4)GlcNAc(b1-2)[Gal(b1-4)GlcNAc(b1-3)Gal(b1-4)GlcNAc(b1-3)Gal(b1-4)GlcNAc(b1-3)Gal(b1-4)GlcNAc(b1-3)Gal(b1-4)GlcNAc(b1-6)]Man(a1-6)[Gal(b1-4)GlcNAc(b1-3)Gal(b1-4)GlcNAc(b1-3)Gal(b1-4)GlcNAc(b1-3)Gal(b1-4)GlcNAc(b1-3)Gal(b1-4)GlcNAc(b1-2)Man(a1-3)]Man(b1-4)GlcNAc(b1-4)[Fuc(a1-6)]GlcNAc
Outline: as §1

[22] = target: Gal(b1-4)GlcNAc(b1-3)Gal(b1-4)GlcNAc(b1-3)Gal(b1-4)GlcNAc(b1-3)Gal(b1-4)GlcNAc(b1-3)Gal(b1-4)GlcNAc(b1-3)Gal(b1-4)GlcNAc(b1-2)Man(a1-3)[Gal(b1-4)GlcNAc(b1-3)Gal(b1-4)GlcNAc(b1-3)Gal(b1-4)GlcNAc(b1-3)Gal(b1-4)GlcNAc(b1-3)Gal(b1-4)GlcNAc(b1-3)Gal(b1-4)GlcNAc(b1-2)Man(a1-6)]Man(b1-4)GlcNAc(b1-4)GlcNAc
Outline: as §1

[23] = target: Gal(b1-4)GlcNAc(b1-3)Gal(b1-4)GlcNAc(b1-3)GalNAc
Outline: as §1

[24] = target: Gal(b1-4)GlcNAc(b1-3)Gal(b1-4)GlcNAc(b1-3)[Gal(b1-4)GlcNAc(b1-3)Gal(b1-4)GlcNAc(b1-6)]GalNAc
Outline: as §1

[25] = target: Gal(b1-4)GlcNAc(b1-3)Gal(b1-4)GlcNAc(b1-6)[Gal(b1-3)]GalNAc
Outline: as §1

[26] = target: Gal(b1-4)GlcNAc(b1-3)Gal(b1-4)[Fuc(a1-3)GlcNAc(b1-6)]Gal(b1-4)Glc
Outline: as §1

[27] = target: Gal(b1-4)GlcNAc(b1-3)Gal(b1-4)[Fuc(a1-3)]GlcNAc(b1-3)Gal(b1-4)[Fuc(a1-3)]GlcNAc
Outline: as §1

[28] = target: Gal(b1-4)GlcNAc(b1-3)GalNAc
Outline: as §1

[29] = target: Gal(b1-4)GlcNAc(b1-3)[Fuc(a1-3)GlcNAc(b1-6)]Gal(b1-4)Glc
Outline: as §1

[30] = target: Gal(b1-4)GlcNAc(b1-3)[Gal(b1-4)GlcNAc(b1-6)]Gal(b1-4)GlcNAc
Outline: as §1

[31] = target: Gal(b1-4)GlcNAc(b1-3)[Gal(b1-4)GlcNAc(b1-6)]GalNAc
Outline: as §1

[32] = target: Gal(b1-4)GlcNAc(b1-3)[GlcNAc(b1-6)]Gal(b1-4)GlcNAc
Outline: as §1

[33] = target: Gal(b1-4)GlcNAc(b1-6)Gal(b1-4)GlcNAc
Outline: as §1

[34] = target: Gal(b1-4)GlcNAc(b1-6)GalNAc
Outline: as §1

[35] = target: Gal(b1-4)GlcNAc(b1-6)[Gal(b1-3)]GalNAc
Outline: as §1

[36] = target: Gal(b1-4)GlcNAc(b1-6)[Gal(b1-4)GlcNAc(b1-3)]GalNAc
Outline: as §1

Gal(b1-4)GlcNAc6P = target: Gal(b1-4)GlcNAc6P
Outline: as §1

Gal(b1-6)Gal = target: Gal(b1-6)Gal
Outline: as §1

B1: LlpA1 (Pseudomonas fluorescens), Q4KHC3 (protein)
chain: MGSSHHHHHHSSGLVPRGSHMAWIRYDFTDNGSSVLPARYYMAPNQYLQSPNKRFKLLFQADGNLALYDGAQLAWVADQNTPFTNVSKGNKKDPMMVFMNYGFVLDDPLRGRIWSTTPSDPTMGSREDASLRAFTQVQDDGNIVTVDTIPHWYAPNGRVFTPAVGAAMIIGGTTELVPGQFYSAGEHSLVFQGDGNLVVYGPNSSVIWATYTQNKGGVRCVMQEDGNLVIYAANNGVVWQSGTGGHPGATIRLQANGSFTIVTERPVWARFGYTPTIKPPRVFYPDHKWKTGSYTWNNVF
- glycan array binding signal (z-score) [1]: 0.344
- glycan array binding signal (z-score) [2]: 0.086
- glycan array binding signal (z-score) [3]: 0.161
- glycan array binding signal (z-score) [4]: -0.388
- glycan array binding signal (z-score) [5]: -0.133
- glycan array binding signal (z-score) [6]: -0.212
- glycan array binding signal (z-score) [7]: -0.078
- glycan array binding signal (z-score) [8]: 1.13
- glycan array binding signal (z-score) [9]: 0.974
- glycan array binding signal (z-score) [10]: 2.3
- glycan array binding signal (z-score) [11]: 1.19
- glycan array binding signal (z-score) [12]: -0.364
- glycan array binding signal (z-score) [13]: 1.63
- glycan array binding signal (z-score) [14]: 2.23
- glycan array binding signal (z-score) [15]: 1.04
- glycan array binding signal (z-score) [16]: 0.38
- glycan array binding signal (z-score) [17]: 1.12
- glycan array binding signal (z-score) [18]: 0.651
- glycan array binding signal (z-score) [19]: 2.15
- glycan array binding signal (z-score) [20]: 0.464
- glycan array binding signal (z-score) [21]: 0.379
- glycan array binding signal (z-score) [22]: 2.19
- glycan array binding signal (z-score) [23]: 0.115
- glycan array binding signal (z-score) [24]: 2.36
- glycan array binding signal (z-score) [25]: 0.513
- glycan array binding signal (z-score) [26]: -1.22
- glycan array binding signal (z-score) [27]: -0.77
- glycan array binding signal (z-score) [28]: -0.927
- glycan array binding signal (z-score) [29]: 0.792
- glycan array binding signal (z-score) [30]: 1.07
- glycan array binding signal (z-score) [31]: -0.666
- glycan array binding signal (z-score) [32]: -0.626
- glycan array binding signal (z-score) [33]: -0.35
- glycan array binding signal (z-score) [34]: 0.034
- glycan array binding signal (z-score) [35]: -0.144
- glycan array binding signal (z-score) [36]: 0.09
- glycan array binding signal (z-score) (Gal(b1-4)GlcNAc6P): 0.521
- glycan array binding signal (z-score) (Gal(b1-6)Gal): 0.188
